# Assay results taken from the supplement of paper PMC12067093, “Discovery and optimisation of a covalent ligand for TRIM25 and its application to targeted protein ubiquitination” (Chemical Science, 2025).
# Protein sequences, listed by entry. Tags and fused reporters are not part of them. Lines headed by an entry give the natural chain unless they say otherwise; changes in a name come on top.
# UniProt P78527, whole entry, looked up: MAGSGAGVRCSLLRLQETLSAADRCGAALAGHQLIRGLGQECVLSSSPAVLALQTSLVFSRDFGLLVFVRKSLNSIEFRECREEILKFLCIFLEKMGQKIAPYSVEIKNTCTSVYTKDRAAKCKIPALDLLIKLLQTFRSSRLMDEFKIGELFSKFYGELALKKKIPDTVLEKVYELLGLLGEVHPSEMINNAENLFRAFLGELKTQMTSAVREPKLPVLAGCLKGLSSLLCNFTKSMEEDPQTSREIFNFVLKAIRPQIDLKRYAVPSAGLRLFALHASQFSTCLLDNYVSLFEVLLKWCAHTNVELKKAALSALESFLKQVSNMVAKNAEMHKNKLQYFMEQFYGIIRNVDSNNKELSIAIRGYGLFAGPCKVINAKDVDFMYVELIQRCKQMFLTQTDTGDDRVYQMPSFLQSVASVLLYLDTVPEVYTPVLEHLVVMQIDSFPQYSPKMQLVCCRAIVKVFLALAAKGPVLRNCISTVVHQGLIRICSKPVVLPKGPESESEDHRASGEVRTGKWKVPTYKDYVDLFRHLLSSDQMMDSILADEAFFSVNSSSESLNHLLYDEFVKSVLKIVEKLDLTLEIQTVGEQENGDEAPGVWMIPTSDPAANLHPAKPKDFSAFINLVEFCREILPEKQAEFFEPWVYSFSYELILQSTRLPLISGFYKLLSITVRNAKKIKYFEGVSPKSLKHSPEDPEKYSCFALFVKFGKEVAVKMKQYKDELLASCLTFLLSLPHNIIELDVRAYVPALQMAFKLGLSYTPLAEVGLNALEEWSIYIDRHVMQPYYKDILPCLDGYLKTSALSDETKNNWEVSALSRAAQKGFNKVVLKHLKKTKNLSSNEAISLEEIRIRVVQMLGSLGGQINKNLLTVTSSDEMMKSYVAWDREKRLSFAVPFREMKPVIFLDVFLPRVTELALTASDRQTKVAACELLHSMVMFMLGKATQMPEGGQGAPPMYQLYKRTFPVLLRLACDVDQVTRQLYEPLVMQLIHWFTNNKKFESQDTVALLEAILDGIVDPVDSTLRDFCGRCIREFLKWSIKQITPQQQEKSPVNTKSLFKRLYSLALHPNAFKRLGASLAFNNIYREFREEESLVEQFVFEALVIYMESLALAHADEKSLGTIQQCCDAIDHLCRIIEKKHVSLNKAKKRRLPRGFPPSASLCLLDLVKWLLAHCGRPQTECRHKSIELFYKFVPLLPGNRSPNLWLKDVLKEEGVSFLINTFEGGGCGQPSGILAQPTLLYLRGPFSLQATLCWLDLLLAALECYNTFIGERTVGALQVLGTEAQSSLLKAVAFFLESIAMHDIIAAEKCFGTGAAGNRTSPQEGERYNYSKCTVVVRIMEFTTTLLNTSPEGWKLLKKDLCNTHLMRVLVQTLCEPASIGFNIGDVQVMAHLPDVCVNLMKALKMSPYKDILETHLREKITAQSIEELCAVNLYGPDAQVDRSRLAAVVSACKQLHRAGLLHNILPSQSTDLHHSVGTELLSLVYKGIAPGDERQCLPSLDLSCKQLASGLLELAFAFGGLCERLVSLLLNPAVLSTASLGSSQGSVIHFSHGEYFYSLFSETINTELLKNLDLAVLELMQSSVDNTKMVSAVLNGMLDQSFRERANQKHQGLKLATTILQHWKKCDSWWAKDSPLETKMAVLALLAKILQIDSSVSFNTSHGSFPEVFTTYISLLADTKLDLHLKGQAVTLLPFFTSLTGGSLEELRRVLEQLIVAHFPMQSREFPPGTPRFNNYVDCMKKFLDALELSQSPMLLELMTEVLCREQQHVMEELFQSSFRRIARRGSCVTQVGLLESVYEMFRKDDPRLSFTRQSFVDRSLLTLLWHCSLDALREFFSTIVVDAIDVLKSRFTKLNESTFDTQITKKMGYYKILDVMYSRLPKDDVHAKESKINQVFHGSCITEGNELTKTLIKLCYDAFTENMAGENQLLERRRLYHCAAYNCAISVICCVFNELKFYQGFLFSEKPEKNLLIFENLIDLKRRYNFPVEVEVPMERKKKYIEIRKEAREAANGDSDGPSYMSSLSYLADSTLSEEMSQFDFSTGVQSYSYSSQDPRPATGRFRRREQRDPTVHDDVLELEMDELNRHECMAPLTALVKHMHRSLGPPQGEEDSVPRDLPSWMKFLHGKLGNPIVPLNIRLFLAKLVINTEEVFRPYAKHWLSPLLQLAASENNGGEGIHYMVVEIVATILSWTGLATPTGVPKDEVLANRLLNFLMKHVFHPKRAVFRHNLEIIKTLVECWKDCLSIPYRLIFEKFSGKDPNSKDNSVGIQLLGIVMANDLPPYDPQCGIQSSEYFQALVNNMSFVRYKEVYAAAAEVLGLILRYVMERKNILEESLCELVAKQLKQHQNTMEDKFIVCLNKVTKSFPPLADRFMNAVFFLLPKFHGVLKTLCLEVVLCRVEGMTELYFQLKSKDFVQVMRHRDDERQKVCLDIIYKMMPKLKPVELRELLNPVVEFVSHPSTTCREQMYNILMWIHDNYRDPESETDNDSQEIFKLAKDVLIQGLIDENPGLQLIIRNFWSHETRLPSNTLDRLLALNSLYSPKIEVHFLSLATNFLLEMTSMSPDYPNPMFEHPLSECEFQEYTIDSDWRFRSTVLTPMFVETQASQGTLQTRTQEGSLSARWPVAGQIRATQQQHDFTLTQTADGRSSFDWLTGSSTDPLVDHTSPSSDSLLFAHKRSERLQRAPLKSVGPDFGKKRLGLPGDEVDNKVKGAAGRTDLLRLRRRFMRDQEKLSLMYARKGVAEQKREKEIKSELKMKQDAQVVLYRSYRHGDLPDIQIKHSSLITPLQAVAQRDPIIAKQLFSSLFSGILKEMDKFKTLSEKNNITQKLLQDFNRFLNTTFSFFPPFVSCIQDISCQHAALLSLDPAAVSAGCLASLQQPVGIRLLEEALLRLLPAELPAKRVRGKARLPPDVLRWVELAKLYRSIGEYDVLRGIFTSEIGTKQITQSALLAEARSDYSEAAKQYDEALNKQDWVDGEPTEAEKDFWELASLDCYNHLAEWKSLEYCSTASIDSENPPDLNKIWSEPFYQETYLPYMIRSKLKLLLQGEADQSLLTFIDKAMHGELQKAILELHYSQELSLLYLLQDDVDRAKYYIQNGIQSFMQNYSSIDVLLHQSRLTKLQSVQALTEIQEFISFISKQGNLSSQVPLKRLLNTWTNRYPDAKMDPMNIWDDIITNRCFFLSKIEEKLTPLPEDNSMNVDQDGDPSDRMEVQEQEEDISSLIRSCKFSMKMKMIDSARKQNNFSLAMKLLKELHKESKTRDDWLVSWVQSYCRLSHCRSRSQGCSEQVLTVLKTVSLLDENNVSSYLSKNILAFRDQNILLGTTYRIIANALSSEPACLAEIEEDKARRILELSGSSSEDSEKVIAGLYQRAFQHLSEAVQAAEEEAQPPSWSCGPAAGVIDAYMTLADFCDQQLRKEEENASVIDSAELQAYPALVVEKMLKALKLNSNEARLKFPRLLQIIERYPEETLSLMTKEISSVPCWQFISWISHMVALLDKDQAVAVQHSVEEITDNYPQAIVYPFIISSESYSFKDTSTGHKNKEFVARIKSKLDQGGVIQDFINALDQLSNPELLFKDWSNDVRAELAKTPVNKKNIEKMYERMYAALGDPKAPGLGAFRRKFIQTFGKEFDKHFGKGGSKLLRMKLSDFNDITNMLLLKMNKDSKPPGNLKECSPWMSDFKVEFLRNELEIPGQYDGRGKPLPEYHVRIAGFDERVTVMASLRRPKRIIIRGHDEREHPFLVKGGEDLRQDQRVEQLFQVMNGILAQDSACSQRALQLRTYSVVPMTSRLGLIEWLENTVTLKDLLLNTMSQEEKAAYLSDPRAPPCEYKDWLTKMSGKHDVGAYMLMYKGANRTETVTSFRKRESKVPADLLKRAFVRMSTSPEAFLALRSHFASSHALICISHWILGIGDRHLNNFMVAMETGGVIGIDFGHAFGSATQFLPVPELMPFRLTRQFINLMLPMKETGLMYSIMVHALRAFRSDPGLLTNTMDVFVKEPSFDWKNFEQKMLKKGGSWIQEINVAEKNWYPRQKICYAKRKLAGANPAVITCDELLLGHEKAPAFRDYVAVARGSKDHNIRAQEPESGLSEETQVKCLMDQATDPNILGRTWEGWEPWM
# UniProt Q6P2P2: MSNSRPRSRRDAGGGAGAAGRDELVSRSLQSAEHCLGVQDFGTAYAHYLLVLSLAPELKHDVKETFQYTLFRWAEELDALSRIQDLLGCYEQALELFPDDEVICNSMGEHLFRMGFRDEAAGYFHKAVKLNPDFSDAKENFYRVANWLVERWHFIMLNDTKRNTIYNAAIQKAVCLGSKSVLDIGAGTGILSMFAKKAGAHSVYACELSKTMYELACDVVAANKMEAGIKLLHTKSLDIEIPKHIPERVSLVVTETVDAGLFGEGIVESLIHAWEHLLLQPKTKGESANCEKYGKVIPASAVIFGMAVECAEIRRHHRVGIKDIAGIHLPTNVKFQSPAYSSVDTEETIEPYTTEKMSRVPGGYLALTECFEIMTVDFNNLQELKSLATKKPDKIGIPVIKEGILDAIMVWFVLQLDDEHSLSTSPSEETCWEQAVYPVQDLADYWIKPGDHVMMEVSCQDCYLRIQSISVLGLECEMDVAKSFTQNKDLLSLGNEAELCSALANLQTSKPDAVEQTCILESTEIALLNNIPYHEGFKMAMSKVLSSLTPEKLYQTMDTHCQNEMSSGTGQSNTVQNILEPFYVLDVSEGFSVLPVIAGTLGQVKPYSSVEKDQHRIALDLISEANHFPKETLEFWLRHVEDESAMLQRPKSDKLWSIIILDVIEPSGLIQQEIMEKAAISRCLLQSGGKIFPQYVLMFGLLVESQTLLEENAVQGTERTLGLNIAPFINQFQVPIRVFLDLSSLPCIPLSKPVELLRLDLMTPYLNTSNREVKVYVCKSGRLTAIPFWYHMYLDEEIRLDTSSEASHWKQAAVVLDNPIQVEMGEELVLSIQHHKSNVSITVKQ
# UniProt Q99873, whole entry, looked up: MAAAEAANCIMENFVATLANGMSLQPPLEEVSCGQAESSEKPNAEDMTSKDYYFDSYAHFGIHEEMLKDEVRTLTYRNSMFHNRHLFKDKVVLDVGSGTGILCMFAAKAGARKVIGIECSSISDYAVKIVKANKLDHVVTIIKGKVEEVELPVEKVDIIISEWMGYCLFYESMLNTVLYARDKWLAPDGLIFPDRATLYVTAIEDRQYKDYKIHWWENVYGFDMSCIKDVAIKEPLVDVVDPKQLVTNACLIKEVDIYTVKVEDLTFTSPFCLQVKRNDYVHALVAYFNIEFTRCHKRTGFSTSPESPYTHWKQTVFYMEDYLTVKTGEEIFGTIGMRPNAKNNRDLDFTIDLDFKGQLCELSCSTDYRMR
# UniProt O14744, whole entry, looked up: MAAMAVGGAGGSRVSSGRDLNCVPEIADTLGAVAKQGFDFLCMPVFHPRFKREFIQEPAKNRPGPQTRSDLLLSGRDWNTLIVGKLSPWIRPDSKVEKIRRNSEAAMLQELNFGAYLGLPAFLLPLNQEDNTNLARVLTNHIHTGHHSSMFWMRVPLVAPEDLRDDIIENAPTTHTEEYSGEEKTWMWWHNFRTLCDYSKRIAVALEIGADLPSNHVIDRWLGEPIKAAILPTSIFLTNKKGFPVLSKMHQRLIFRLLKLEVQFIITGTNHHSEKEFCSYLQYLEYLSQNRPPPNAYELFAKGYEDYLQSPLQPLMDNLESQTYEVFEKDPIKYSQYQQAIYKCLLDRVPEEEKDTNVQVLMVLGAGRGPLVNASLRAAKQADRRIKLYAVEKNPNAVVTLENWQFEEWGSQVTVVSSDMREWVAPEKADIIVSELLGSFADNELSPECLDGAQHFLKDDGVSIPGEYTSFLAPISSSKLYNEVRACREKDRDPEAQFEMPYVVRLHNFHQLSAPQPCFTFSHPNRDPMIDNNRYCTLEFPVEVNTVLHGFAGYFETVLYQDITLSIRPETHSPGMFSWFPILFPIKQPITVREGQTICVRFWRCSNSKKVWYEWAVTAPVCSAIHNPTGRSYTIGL
# UniProt P10644, whole entry, looked up: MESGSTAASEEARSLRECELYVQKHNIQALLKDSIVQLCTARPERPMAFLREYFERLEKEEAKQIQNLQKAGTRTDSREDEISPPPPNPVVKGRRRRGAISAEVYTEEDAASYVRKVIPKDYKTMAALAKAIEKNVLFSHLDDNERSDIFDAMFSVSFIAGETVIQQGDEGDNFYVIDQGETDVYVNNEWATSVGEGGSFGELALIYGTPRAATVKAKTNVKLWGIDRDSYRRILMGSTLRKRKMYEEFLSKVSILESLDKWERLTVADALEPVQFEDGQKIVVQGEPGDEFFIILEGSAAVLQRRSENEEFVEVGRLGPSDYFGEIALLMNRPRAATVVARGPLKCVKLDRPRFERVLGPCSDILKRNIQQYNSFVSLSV
# Some of the results follow.
# Compound: Cc1cc(ccc1-c1ccccc1)C(=O)N1CCCN(CC1)C(=O)CCl [compound 10]
# Assay: probe-labelled cysteine peptide fold change vs DMSO (competition) (log2 fold change); higher = less target engagement (more negative = stronger competition)
# Settings: THP-1, incubation time: 4 h
# 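Also: competitive profiling in live THP-1 cells: cysteine peptides tagged with an iodoacetamide desthiobiotin (IA-DTB) probe, intensity after compound treatment relative to DMSO-treated cells.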
Target,probe-labelled cysteine peptide fold change (10 µM),probe-labelled cysteine peptide fold change (50 µM)
PRKDC_P78527_1127+1128_SLGTIQQCCDAIDHLCR (UniProt P78527),0.347,0.0684
PRKDC_P78527_1128_SLGTIQQCCDAIDHLCR (UniProt P78527),0.0881,-0.193
PRPF31_Q8WWY3_247_MPACNIMLLGAQR (UniProt Q8WWY3),-0.0993,-0.0869
PRPF6_O94906_807_ALQECPNSGILWSEAIFLEAR (UniProt O94906),0.317,0.0886
PRMT9_Q6P2P2_476_IQSISVLGLECEMDVAK (UniProt Q6P2P2),0.196,0.065
PRKDC_P78527_111_NTCTSVYTK (UniProt P78527),-0.255,0.0765
PRMT1_Q99873_119_KVIGIECSSISDYAVK (UniProt Q99873),0.0774,-0.48
PRPF4_O43172_441_RCVYTIPAHQNLVTGVK (UniProt O43172),-0.0522,-0.2
PRKCQ_Q04759_193_QCNAAIHKK (UniProt Q04759),-0.575,-0.964
PRMT7_Q9NVM4_639+640_RPGQSHAAVLWMEYHLTPECTLSTGLLEPADPEGGCCWNPHCK (UniProt Q9NVM4),-0.354,-0.377
PRMT9_Q6P2P2_206_AGAHSVYACELSK (UniProt Q6P2P2),-0.229,0.391
PRKDC_P78527_1176_WLLAHCGR (UniProt P78527),-0.53,0.383
PRPF4_O43172_431_EIYGINFSPNGYHIATGSGDNTCK (UniProt O43172),0.0874,0.0595
PRKCD_Q05655_175_NHEFIATFFGQPTFCSVCK (UniProt Q05655),-0.67,-0.472
PRMT9_Q6P2P2_310_VIPASAVIFGMAVECAEIR (UniProt Q6P2P2),0.425,0.559
PRKCD_Q05655_393_DVVLIDDDVECTMVEK (UniProt Q05655),-0.33,0.0519
PRKDC_P78527_1791_GSCVTQVGLLESVYEMFR (UniProt P78527),-0.0217,0.201
PRIM2_P49643_449_YFEMIHNVDDCGFSLNHPNQFFCESQR (UniProt P49643),-0.247,-0.368
PRKDC_P78527_2435_VCLDIIYK (UniProt P78527),0.095,0.101
PRKAB1_Q9Y478_223_DTGISCDPALLPEPNHVMLNHLYALSIK (UniProt Q9Y478),-0.447,-0.409
PRPF19_Q9UMS4_298_IWSVPNASCVQVVR (UniProt Q9UMS4),0.193,0.163

Target,probe-labelled cysteine peptide fold change (10 µM),probe-labelled cysteine peptide fold change (50 µM)
PRKRA_O75569_77_VTVGDITCTGEGTSK (UniProt O75569),0.0514,-0.138
PRKCB_P05771_409_VLALPGKPPFLTQLHSCFQTMDR (UniProt P05771),-0.0204,0.372
PRKDC_P78527_478_NCISTVVHQGLIR (UniProt P78527),0.0635,0.213
PRMT5_O14744_344_CLLDRVPEEEK (UniProt O14744),-0.0136,-0.015
PRPF38A_Q8NAV1_158_VCDIILPR (UniProt Q8NAV1),-0.0334,-0.0281
PRKDC_P78527_1432_ITAQSIEELCAVNLYGPDAQVDR (UniProt P78527),-0.186,-0.242
PRRC2B_Q5JSZ5_1121_EFARPEDCPR (UniProt Q5JSZ5),-0.251,-0.429
PRKAB2_O43741_225_DTNISCDPALLPEPNHVMLNHLYALSIK (UniProt O43741),-0.173,-0.299
PRPF19_Q9UMS4_16_SLICSISNEVPEHPCVSPVSNHVYER (UniProt Q9UMS4),0.241,0.301
PRPF19_Q9UMS4_114_QELSHALYQHDAACR (UniProt Q9UMS4),0.0823,0.15
PRKCSH_P14314_77_DGSDEPGTAACPNGSFHCTNTGYK (UniProt P14314),0.189,0.422
PRKDC_P78527_3683_ECSPWMSDFK (UniProt P78527),0.0132,0.0914
PRKDC_P78527_1183_WLLAHCGRPQTECR (UniProt P78527),-0.312,0.169
PRMT5_O14744_518_LHNFHQLSAPQPCFTFSHPNRDPMIDNNR (UniProt O14744),0.0344,0.137
PRKCB_P05771_132_CDTCMMNVHKR (UniProt P05771),0.065,-0.464
PRR14L_Q5THK1_1503_AQDPSSAGCDQIHGAFAK (UniProt Q5THK1),-0.388,-1.59
PRKCD_Q05655_459_ATFYAAEIMCGLQFLHSK (UniProt Q05655),-0.178,0.369
PRSS12_P56730_739_LQGPEEQCAR (UniProt P56730),-0.0714,0.044
PRKDC_P78527_1455_LAAVVSACK (UniProt P78527),-0.175,0.0415
PRMT3_O60678_53_QQTPCLFCNR (UniProt O60678),-0.0865,0.179
PRKCB_P05771_217_CSLNPEWNETFR (UniProt P05771),-0.0468,-0.192

# Single records, as listed above. Order of values: probe-labelled cysteine peptide fold change (10 µM)	probe-labelled cysteine peptide fold change (50 µM)
# PRKCSH_P14314_77_DGSDEPGTAACPNGSFHCTNTGYK (UniProt P14314) as listed: 0.189	0.422
# PRMT5_O14744_344_CLLDRVPEEEK (UniProt O14744) as listed: -0.0136	-0.015
# PRR14L_Q5THK1_1503_AQDPSSAGCDQIHGAFAK (UniProt Q5THK1) as listed: -0.388	-1.59
# PRKCD_Q05655_459_ATFYAAEIMCGLQFLHSK (UniProt Q05655) as listed: -0.178	0.369

# (next part)

Target,probe-labelled cysteine peptide fold change (10 µM),probe-labelled cysteine peptide fold change (50 µM)
PRKCSH_P14314_56_GVSLTNHHFYDESKPFTCLDGSATIPFDQVNDDYCDCK (UniProt P14314),-0.131,-0.981
PRKDC_P78527_974_LACDVDQVTR (UniProt P78527),0.168,0.168
PRKCSH_P14314_471_YEQGTGCWQGPNR (UniProt P14314),-0.163,0.0165
PRKDC_P78527_223_LPVLAGCLK (UniProt P78527),0.0967,-0.0516
PRKCD_Q05655_344_CNINNFIFHK (UniProt Q05655),-0.471,-0.223
PRIM2_P49643_367_RTDYTPFSCLK (UniProt P49643),0.0621,-0.0448
PRPF39_Q86UA1_450_TFEECVLGLAMVR (UniProt Q86UA1),0.0739,0.0216
PRMT5_O14744_622_KVWYEWAVTAPVCSAIHNPTGR (UniProt O14744),-0.0156,0.0576
PRICKLE3_O43900_246_HHAECLRPR (UniProt O43900),-0.147,-0.245
PRMT1_Q99873-3_15_AAAEAANCIMEVSCGQAESSEKPNAEDMTSK (UniProt Q99873),-0.555,0.11
PRKAR1A_P10644_39_DSIVQLCTARPER (UniProt P10644),-0.205,0.175
PRKCD_Q05655_208_CTGTAANSR (UniProt Q05655),-0.42,-0.345
PRRC2C_Q9Y520_620_QESENSCNK (UniProt Q9Y520),0.000148,0.376
PRKCB_P05771_586_LGCGPEGER (UniProt P05771),-0.194,0.102
PRKDC_P78527_2469_ELLNPVVEFVSHPSTTCR (UniProt P78527),0.0754,0.199
PRKCD_Q05655_172+175_NHEFIATFFGQPTFCSVCK (UniProt Q05655),-0.461,-0.571
PRKCD_Q05655_247_VHNYMSPTFCDHCGSLLWGLVK (UniProt Q05655),-0.553,-0.908
PRKAA1_Q13131_141_LFQQILSGVDYCHR (UniProt Q13131),0.125,0.266
PRPF4_O43172_441_CVYTIPAHQNLVTGVK (UniProt O43172),0.171,0.12
PRKCB_P05771_151_CVMNVPSLCGTDHTER (UniProt P05771),-0.0318,-0.00516
PRPF8_Q6P2Q9_435_EHCPAGQPVK (UniProt Q6P2Q9),-0.0827,0.14

Target,probe-labelled cysteine peptide fold change (10 µM),probe-labelled cysteine peptide fold change (50 µM)
PRKDC_P78527_2342_NILEESLCELVAK (UniProt P78527),-0.0245,0.199
PSD4_Q8NDX1_933_SHENCLDAAADDLLDLQR (UniProt Q8NDX1),-0.308,-0.126
PRKDC_P78527_3001_DFWELASLDCYNHLAEWK (UniProt P78527),0.0135,0.0867
PRKDC_P78527_1127_SLGTIQQCCDAIDHLCR (UniProt P78527),-0.0104,0.103
PRPF4_O43172_237_SLNNFCSQIGDDRPISYCHFSPNSK (UniProt O43172),0.0328,-0.157
PRPF8_Q6P2Q9_2116_FICISDLR (UniProt Q6P2Q9),0.018,0.162
PRPF6_O94906_739_CPHSTPLWLLLSR (UniProt O94906),0.0362,0.027
PRKAR1A_P10644_39_DSIVQLCTARPERPMAFLR (UniProt P10644),-0.0353,-0.242
PRRC2B_Q5JSZ5_819_AQADFDSCISSQR (UniProt Q5JSZ5),-0.314,-0.048
PRMT1_Q99873_360+364_GQLCELSCSTDYR (UniProt Q99873),0.178,-0.84
PRPF6_O94906_837_KCEHDPHVLLAVAK (UniProt O94906),-0.315,0.18
PRKDC_P78527_3187_CFFLSK (UniProt P78527),-0.115,-0.189
PRPF4_O43172_399_CIMFLEGHLK (UniProt O43172),0.0903,0.0696
PRKAR1B_P31321_18_GCELYVQLHGIQQVLK (UniProt P31321),-0.326,-0.34
PRKRA_O75569_77_VTVGDITCTGEGTSKK (UniProt O75569),0.141,-0.288
PRKAR1A_P10644_362_VLGPCSDILK (UniProt P10644),-0.272,0.19
PRKDC_P78527_1176+1183_WLLAHCGRPQTECR (UniProt P78527),-0.397,0.166
PRMT6_Q96LA8_100_TVLDVGAGTGILSIFCAQAGAR (UniProt Q96LA8),0.377,0.339
PRPS2_P11908_226_VAILVDDMADTCGTICHAADK (UniProt P11908),0.26,-0.25
PRKCI_P41743_137_LYCANGHTFQAK (UniProt P41743),-0.00179,0.0748
